For 2 substances, quadrupole coupling and 2H quadrupolar splitting results are on record in US11952433B2, “Heterochiral peptide-complex and composition for measuring nuclear magnetic resonance spectroscopy residual dipolar coupling containing self-assembled intermediates of heterochiral peptide-complex” (INDUSTRY-ACADEMIC COOPERATION FOUNDATION, YONSEI UNIVERSITY, priority 2020, dated 2024).

This series is described as follows: 2H-NMR quadrupolar splitting of deuterium in D2O with the peptide complex as alignment medium. The format is physicochemical. As to conditions: 8 mg/mL, 10% (v/v) D2O, 298 K; for quadrupole coupling: crystal (final self-assembled state).

On to “(D)Trp-(L)Trp-(D)Trp-(L)Tre-(D)Trp-(L)Trp [Example 1]”, for which the quadrupole coupling entry was “not observed at all”. Moreover, where the note is “self-assembled 1D intermediate state”, the 2H quadrupolar splitting came out at 1.74 Hz.

On to “PEGylated (L)Trp-(L)Trp-(L)Trp-(L)Trp-(L)Trp-(L)Trp [Comparative Example 1]”, for which the quadrupole coupling result is given as “not observed at all”.
